Assay [1] concerns the target T1, Purified native mouse tendon type I collagen from wild type mice (mouse) (UniProt P11087+Q01149). In words: SPR (BIACore X), collagen immobilised on CM5 chip, decorin at 3, 5 and 12 uM.
Assay [2] concerns the target T1, Purified native mouse tendon type I collagen from wild type mice (mouse). In words: SPR (BIACore X), collagen immobilised on CM5 chip. On the technique in general: SPR reads the build-up and loss of mass on a sensor chip optically.

Protein sequences, listed by entry. Tags and fused reporters are not part of them. Lines headed by an entry give the natural chain unless they say otherwise; changes in a name come on top. Residues count along the entry.
UniProt P11087: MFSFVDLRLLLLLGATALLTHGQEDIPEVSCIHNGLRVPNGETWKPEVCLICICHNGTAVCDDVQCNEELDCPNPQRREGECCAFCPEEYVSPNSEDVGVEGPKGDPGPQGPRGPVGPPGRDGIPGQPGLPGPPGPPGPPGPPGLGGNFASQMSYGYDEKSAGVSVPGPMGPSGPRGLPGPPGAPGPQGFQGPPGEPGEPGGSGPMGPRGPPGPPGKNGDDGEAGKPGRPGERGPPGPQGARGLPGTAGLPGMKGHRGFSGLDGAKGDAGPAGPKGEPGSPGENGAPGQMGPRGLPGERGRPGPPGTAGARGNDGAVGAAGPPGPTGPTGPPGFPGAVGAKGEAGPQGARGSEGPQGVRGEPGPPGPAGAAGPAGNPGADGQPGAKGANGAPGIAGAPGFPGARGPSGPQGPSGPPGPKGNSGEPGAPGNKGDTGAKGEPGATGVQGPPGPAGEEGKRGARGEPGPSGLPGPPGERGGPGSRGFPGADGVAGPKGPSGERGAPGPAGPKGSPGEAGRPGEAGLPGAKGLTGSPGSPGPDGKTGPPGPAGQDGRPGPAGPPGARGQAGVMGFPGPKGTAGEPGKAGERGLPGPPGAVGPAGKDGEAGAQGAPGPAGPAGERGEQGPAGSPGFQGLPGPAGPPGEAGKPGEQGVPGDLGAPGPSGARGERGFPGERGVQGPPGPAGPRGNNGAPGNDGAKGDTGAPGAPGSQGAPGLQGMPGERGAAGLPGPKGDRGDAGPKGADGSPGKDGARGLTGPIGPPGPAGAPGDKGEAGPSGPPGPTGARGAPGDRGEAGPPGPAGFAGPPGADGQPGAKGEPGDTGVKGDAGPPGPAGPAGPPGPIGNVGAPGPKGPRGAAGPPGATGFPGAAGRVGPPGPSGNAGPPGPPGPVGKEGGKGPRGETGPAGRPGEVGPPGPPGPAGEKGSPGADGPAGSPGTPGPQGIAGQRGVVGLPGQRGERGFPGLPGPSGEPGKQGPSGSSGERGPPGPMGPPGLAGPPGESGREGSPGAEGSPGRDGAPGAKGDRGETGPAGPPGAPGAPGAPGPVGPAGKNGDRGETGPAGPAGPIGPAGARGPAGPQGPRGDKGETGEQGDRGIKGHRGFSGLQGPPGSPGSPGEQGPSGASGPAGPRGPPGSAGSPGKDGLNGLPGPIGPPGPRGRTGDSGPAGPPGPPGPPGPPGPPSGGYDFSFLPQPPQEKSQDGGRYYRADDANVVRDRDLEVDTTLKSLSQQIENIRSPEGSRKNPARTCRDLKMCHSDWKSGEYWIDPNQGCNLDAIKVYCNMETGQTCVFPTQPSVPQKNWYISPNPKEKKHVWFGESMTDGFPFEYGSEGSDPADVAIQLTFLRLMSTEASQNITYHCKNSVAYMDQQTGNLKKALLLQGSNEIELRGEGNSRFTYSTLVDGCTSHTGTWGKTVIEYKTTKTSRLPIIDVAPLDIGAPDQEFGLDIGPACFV
UniProt Q01149: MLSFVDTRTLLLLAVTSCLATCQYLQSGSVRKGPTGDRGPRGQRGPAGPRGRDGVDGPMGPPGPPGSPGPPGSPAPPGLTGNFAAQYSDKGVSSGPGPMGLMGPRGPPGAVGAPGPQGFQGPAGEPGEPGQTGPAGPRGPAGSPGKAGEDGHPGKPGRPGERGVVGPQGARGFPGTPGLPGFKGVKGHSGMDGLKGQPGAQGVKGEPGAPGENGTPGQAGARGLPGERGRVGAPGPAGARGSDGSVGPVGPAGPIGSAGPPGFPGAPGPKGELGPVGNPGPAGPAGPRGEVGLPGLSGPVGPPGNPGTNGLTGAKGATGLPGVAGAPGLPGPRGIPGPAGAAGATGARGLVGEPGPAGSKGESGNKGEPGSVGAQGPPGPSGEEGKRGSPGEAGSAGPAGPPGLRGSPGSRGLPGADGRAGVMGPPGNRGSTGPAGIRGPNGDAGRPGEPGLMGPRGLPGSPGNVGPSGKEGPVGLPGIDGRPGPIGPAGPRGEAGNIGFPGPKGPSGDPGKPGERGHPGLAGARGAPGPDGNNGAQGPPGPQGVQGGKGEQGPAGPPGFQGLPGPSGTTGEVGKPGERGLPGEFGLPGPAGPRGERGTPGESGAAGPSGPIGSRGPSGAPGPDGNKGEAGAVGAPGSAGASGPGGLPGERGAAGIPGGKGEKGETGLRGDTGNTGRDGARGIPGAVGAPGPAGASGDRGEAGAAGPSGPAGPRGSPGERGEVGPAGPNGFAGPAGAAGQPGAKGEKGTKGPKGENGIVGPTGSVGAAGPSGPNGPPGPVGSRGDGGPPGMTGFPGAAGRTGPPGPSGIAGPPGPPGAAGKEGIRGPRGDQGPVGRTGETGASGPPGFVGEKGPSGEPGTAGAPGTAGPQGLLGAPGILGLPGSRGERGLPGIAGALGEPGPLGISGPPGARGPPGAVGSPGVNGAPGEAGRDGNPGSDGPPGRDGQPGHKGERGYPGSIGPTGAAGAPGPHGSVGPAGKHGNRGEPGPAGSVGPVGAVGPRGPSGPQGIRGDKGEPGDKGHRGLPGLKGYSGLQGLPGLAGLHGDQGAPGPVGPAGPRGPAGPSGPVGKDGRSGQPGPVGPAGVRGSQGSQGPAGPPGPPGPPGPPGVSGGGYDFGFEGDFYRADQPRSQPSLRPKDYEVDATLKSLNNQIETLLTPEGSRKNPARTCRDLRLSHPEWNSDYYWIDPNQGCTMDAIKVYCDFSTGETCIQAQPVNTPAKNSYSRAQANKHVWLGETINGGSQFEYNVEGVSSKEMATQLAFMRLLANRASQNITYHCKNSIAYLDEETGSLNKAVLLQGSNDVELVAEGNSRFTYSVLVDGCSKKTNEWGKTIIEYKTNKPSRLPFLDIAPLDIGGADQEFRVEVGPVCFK
UniProt P07585, residues 31-359: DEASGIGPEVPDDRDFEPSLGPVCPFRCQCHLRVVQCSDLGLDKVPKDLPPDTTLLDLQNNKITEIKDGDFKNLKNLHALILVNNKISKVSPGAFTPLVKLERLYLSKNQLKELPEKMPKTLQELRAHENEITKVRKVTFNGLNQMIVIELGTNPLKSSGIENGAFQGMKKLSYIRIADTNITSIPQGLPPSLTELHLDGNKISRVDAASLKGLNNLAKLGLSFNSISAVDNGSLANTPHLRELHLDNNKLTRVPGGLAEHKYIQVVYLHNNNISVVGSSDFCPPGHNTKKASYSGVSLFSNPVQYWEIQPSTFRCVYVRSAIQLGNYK

Results are given in words; binding and its absence hold for the method and conditions named. Some binding calls cover weakened binding; strength is not graded here.

For “Recombinant human decorin core protein (R&D systems) (from UniProt P07585 31-359)”, the binding entry in assay [1] and in assay [2] was “binds” throughout.

(Values after patent US20190389943A1.)
